Data: patent publication US6664231B1 (priority 1993, dated 2003)

Assay: general procedure: Fmoc solid-phase peptide synthesis; polystyrene resin, 1% DVB, Fmoc-Rink amide linker, 0.44 mmoles/gram; DIC/HOBt and HBTU/HOBt/DIEA (double coupling)
Conditions: whole synthesis, scale of the general procedure between 0.1 grams and 5 grams of starting resin

Substance | crude HPLC purity [%] | final HPLC purity [%]
H-WLIQLKK-NH2 | 69 | 
K - K - L - L - L - Q - L - K - K (KKLLLQLKK) |  | 99
H-KSKVG[Tle]LIQLFHKK-NH2 (SMILES CC[C@H](C)[C@H](NC(=O)[C@H](CC(C)C)NC(=O)[C@@H](NC(=O)CNC(=O)[C@@H](NC(=O)[C@H](CCCCN)NC(=O)[C@H](CO)NC(=O)[C@@H](N)CCCCN)C(C)C)C(C)(C)C)C(=O)N[C@@H](CCC(N)=O)C(=O)N[C@@H](CC(C)C)C(=O)N[C@@H](Cc1ccccc1)C(=O)N[C@@H](Cc1c[nH]cn1)C(=O)N[C@@H](CCCCN)C(=O)N[C@@H](CCCCN)C(N)=O) | 62 | 
H-KSKVG[NMeV]LIQLFHKK-NH2 (SMILES CC[C@H](C)[C@H](NC(=O)[C@H](CC(C)C)NC(=O)[C@H](C(C)C)N(C)C(=O)CNC(=O)[C@@H](NC(=O)[C@H](CCCCN)NC(=O)[C@H](CO)NC(=O)[C@@H](N)CCCCN)C(C)C)C(=O)N[C@@H](CCC(N)=O)C(=O)N[C@@H](CC(C)C)C(=O)N[C@@H](Cc1ccccc1)C(=O)N[C@@H](Cc1c[nH]cn1)C(=O)N[C@@H](CCCCN)C(=O)N[C@@H](CCCCN)C(N)=O) | 75 | 
H-KSKVGWLITLFHKK-NH2 | 26 | 
H-KSKVGWLIQLFHKKKSKVGWLIQLFHKK-NH2 | 26 | 
H-KSKVGWLI[Phe(4-NH2)]LF[1Nal]KK-NH2 (SMILES CC[C@H](C)[C@H](NC(=O)[C@H](CC(C)C)NC(=O)[C@H](Cc1c[nH]c2ccccc12)NC(=O)CNC(=O)[C@@H](NC(=O)[C@H](CCCCN)NC(=O)[C@H](CO)NC(=O)[C@@H](N)CCCCN)C(C)C)C(=O)N[C@@H](Cc1ccc(N)cc1)C(=O)N[C@@H](CC(C)C)C(=O)N[C@@H](Cc1ccccc1)C(=O)N[C@@H](Cc1cccc2ccccc12)C(=O)N[C@@H](CCCCN)C(=O)N[C@@H](CCCCN)C(N)=O) | 28 | 
H-KSKVGWLI[Phe(4-NH2)]LFHKK-NH2 (SMILES CC[C@H](C)[C@H](NC(=O)[C@H](CC(C)C)NC(=O)[C@H](Cc1c[nH]c2ccccc12)NC(=O)CNC(=O)[C@@H](NC(=O)[C@H](CCCCN)NC(=O)[C@H](CO)NC(=O)[C@@H](N)CCCCN)C(C)C)C(=O)N[C@@H](Cc1ccc(N)cc1)C(=O)N[C@@H](CC(C)C)C(=O)N[C@@H](Cc1ccccc1)C(=O)N[C@@H](Cc1c[nH]cn1)C(=O)N[C@@H](CCCCN)C(=O)N[C@@H](CCCCN)C(N)=O) | 64 | 
H-KSKVG[Cha]LIQLFHKK-NH2 (SMILES CC[C@H](C)[C@H](NC(=O)[C@H](CC(C)C)NC(=O)[C@H](CC1CCCCC1)NC(=O)CNC(=O)[C@@H](NC(=O)[C@H](CCCCN)NC(=O)[C@H](CO)NC(=O)[C@@H](N)CCCCN)C(C)C)C(=O)N[C@@H](CCC(N)=O)C(=O)N[C@@H](CC(C)C)C(=O)N[C@@H](Cc1ccccc1)C(=O)N[C@@H](Cc1c[nH]cn1)C(=O)N[C@@H](CCCCN)C(=O)N[C@@H](CCCCN)C(N)=O) | 60 | 
H-VKWLIQLFH-NH2 | 64 | 
H-KSKVGWLIQLFHKW-NH2 | 50 | 
H-KSKV[Phe(4-NH2)]WLIQ[1Nal]FHKK-NH2 (SMILES CC[C@H](C)[C@H](NC(=O)[C@H](CC(C)C)NC(=O)[C@H](Cc1c[nH]c2ccccc12)NC(=O)[C@H](Cc1ccc(N)cc1)NC(=O)[C@@H](NC(=O)[C@H](CCCCN)NC(=O)[C@H](CO)NC(=O)[C@@H](N)CCCCN)C(C)C)C(=O)N[C@@H](CCC(N)=O)C(=O)N[C@@H](Cc1cccc2ccccc12)C(=O)N[C@@H](Cc1ccccc1)C(=O)N[C@@H](Cc1c[nH]cn1)C(=O)N[C@@H](CCCCN)C(=O)N[C@@H](CCCCN)C(N)=O) | 73 | 
K - K - L - L - Q - L - L - K - K (KKLLQLLKK) |  | 99
H-KSKVGWLIQAFHKK-NH2 | 53 | 
PEPTIDE1{[dK].[dK].[dH].[dF].[dL].[dQ].[dI].[dL].[dW].[dK].[am]}$$$$V2.0 | 69 | 99
H-KSKVG[dW]LIQLFHKK-NH2 (SMILES CC[C@H](C)[C@H](NC(=O)[C@H](CC(C)C)NC(=O)[C@@H](Cc1c[nH]c2ccccc12)NC(=O)CNC(=O)[C@@H](NC(=O)[C@H](CCCCN)NC(=O)[C@H](CO)NC(=O)[C@@H](N)CCCCN)C(C)C)C(=O)N[C@@H](CCC(N)=O)C(=O)N[C@@H](CC(C)C)C(=O)N[C@@H](Cc1ccccc1)C(=O)N[C@@H](Cc1c[nH]cn1)C(=O)N[C@@H](CCCCN)C(=O)N[C@@H](CCCCN)C(N)=O) | 54 | 
PEPTIDE1{K.W.L.I.Q.L.K.K.[am]}$$$$V2.0 | 67 | 
H-LIQLFH-NH2 | 64 | 
H-KSKVGWLIQ[1Nal]WHKK-NH2 (SMILES CC[C@H](C)[C@H](NC(=O)[C@H](CC(C)C)NC(=O)[C@H](Cc1c[nH]c2ccccc12)NC(=O)CNC(=O)[C@@H](NC(=O)[C@H](CCCCN)NC(=O)[C@H](CO)NC(=O)[C@@H](N)CCCCN)C(C)C)C(=O)N[C@@H](CCC(N)=O)C(=O)N[C@@H](Cc1cccc2ccccc12)C(=O)N[C@@H](Cc1c[nH]c2ccccc12)C(=O)N[C@@H](Cc1c[nH]cn1)C(=O)N[C@@H](CCCCN)C(=O)N[C@@H](CCCCN)C(N)=O) | 34 | 
H-KKWLIQLFHKP-NH2 | 61 | 98
H-KSKVKWLIQLWHKK-NH2 | 67 | 
H-KSKVG[1Nal]LIQLFHK[1Nal]-NH2 (SMILES CC[C@H](C)[C@H](NC(=O)[C@H](CC(C)C)NC(=O)[C@H](Cc1cccc2ccccc12)NC(=O)CNC(=O)[C@@H](NC(=O)[C@H](CCCCN)NC(=O)[C@H](CO)NC(=O)[C@@H](N)CCCCN)C(C)C)C(=O)N[C@@H](CCC(N)=O)C(=O)N[C@@H](CC(C)C)C(=O)N[C@@H](Cc1ccccc1)C(=O)N[C@@H](Cc1c[nH]cn1)C(=O)N[C@@H](CCCCN)C(=O)N[C@@H](Cc1cccc2ccccc12)C(N)=O) | 57 | >99
H-KSKVGWLIQLFWKK-NH2 | 55 | 

Substance | crude HPLC purity [%] | final HPLC purity [%]
H-KSKVGWLILLWHKK-NH2 | 55 | 
PEPTIDE1{K.K.V.L.I.Q.L.K.K.[am]}$$$$V2.0 | 69 | 
H-KKKWLIQLKKK-NH2 | 65 | 98
H-KSKVGWLIQLWHKK-NH2 | 58 | 
H-KSAVGWLIQLFHKK-NH2 | 58 | 
H-KSKVGWLAQLFHKK-NH2 | 70 | 
H-KSKVGWLILLFHKKKSKVGWLIQLFHKK-NH2 | 31 | 
H-KSKVAWLIQLFHKK-NH2 | 72 | 
H-KSKVGVLIQLFHKK-NH2 | 68 | 
H-KSKVGWLIQ[1Nal]F[1Nal]KK-NH2 (SMILES CC[C@H](C)[C@H](NC(=O)[C@H](CC(C)C)NC(=O)[C@H](Cc1c[nH]c2ccccc12)NC(=O)CNC(=O)[C@@H](NC(=O)[C@H](CCCCN)NC(=O)[C@H](CO)NC(=O)[C@@H](N)CCCCN)C(C)C)C(=O)N[C@@H](CCC(N)=O)C(=O)N[C@@H](Cc1cccc2ccccc12)C(=O)N[C@@H](Cc1ccccc1)C(=O)N[C@@H](Cc1cccc2ccccc12)C(=O)N[C@@H](CCCCN)C(=O)N[C@@H](CCCCN)C(N)=O) | 44 | 
H-KSKV[Phe(4-NH2)]WLI[Phe(4-NH2)]LFHKK-NH2 (SMILES CC[C@H](C)[C@H](NC(=O)[C@H](CC(C)C)NC(=O)[C@H](Cc1c[nH]c2ccccc12)NC(=O)[C@H](Cc1ccc(N)cc1)NC(=O)[C@@H](NC(=O)[C@H](CCCCN)NC(=O)[C@H](CO)NC(=O)[C@@H](N)CCCCN)C(C)C)C(=O)N[C@@H](Cc1ccc(N)cc1)C(=O)N[C@@H](CC(C)C)C(=O)N[C@@H](Cc1ccccc1)C(=O)N[C@@H](Cc1c[nH]cn1)C(=O)N[C@@H](CCCCN)C(=O)N[C@@H](CCCCN)C(N)=O) | 66 | 
151-161, K @ 151 (V), P @ 152 (G) (KPWLIQLFHKK) |  | 98
H-KSKVKFLIKLFHKK-NH2 | 36 | 
H-IQLFHK-NH2 | 84 | 
H-KSKVGWLIALFHKK-NH2 | 53 | 
H-KSKVK[1Nal]LIQLFHKK-NH2 (SMILES CC[C@H](C)[C@H](NC(=O)[C@H](CC(C)C)NC(=O)[C@H](Cc1cccc2ccccc12)NC(=O)[C@H](CCCCN)NC(=O)[C@@H](NC(=O)[C@H](CCCCN)NC(=O)[C@H](CO)NC(=O)[C@@H](N)CCCCN)C(C)C)C(=O)N[C@@H](CCC(N)=O)C(=O)N[C@@H](CC(C)C)C(=O)N[C@@H](Cc1ccccc1)C(=O)N[C@@H](Cc1c[nH]cn1)C(=O)N[C@@H](CCCCN)C(=O)N[C@@H](CCCCN)C(N)=O) | 72 | 
K - K - L - L - L - L - Q - K - K (KKLLLLQKK) |  | 99
H-KSKVGWLIQLF[1Nal]KK-NH2 (SMILES CC[C@H](C)[C@H](NC(=O)[C@H](CC(C)C)NC(=O)[C@H](Cc1c[nH]c2ccccc12)NC(=O)CNC(=O)[C@@H](NC(=O)[C@H](CCCCN)NC(=O)[C@H](CO)NC(=O)[C@@H](N)CCCCN)C(C)C)C(=O)N[C@@H](CCC(N)=O)C(=O)N[C@@H](CC(C)C)C(=O)N[C@@H](Cc1ccccc1)C(=O)N[C@@H](Cc1cccc2ccccc12)C(=O)N[C@@H](CCCCN)C(=O)N[C@@H](CCCCN)C(N)=O) | 56 | 
H-KSKVGWLI[Phe(4-NH2)]LWHKK-NH2 (SMILES CC[C@H](C)[C@H](NC(=O)[C@H](CC(C)C)NC(=O)[C@H](Cc1c[nH]c2ccccc12)NC(=O)CNC(=O)[C@@H](NC(=O)[C@H](CCCCN)NC(=O)[C@H](CO)NC(=O)[C@@H](N)CCCCN)C(C)C)C(=O)N[C@@H](Cc1ccc(N)cc1)C(=O)N[C@@H](CC(C)C)C(=O)N[C@@H](Cc1c[nH]c2ccccc12)C(=O)N[C@@H](Cc1c[nH]cn1)C(=O)N[C@@H](CCCCN)C(=O)N[C@@H](CCCCN)C(N)=O) | 30 | 
H-KSKVGWLI[Phe(4-NH2)]LFHK[1Nal]-NH2 (SMILES CC[C@H](C)[C@H](NC(=O)[C@H](CC(C)C)NC(=O)[C@H](Cc1c[nH]c2ccccc12)NC(=O)CNC(=O)[C@@H](NC(=O)[C@H](CCCCN)NC(=O)[C@H](CO)NC(=O)[C@@H](N)CCCCN)C(C)C)C(=O)N[C@@H](Cc1ccc(N)cc1)C(=O)N[C@@H](CC(C)C)C(=O)N[C@@H](Cc1ccccc1)C(=O)N[C@@H](Cc1c[nH]cn1)C(=O)N[C@@H](CCCCN)C(=O)N[C@@H](Cc1cccc2ccccc12)C(N)=O) | 43 | 
H-KSKVWLIQLFHKK-NH2 | 76 | 
PYR - PYR - 153-157 - PYR - PYR (AAWLIQLAA; pyridyl residues) | 76 | 99

HELM strings list residues between dots; [ac] is acetyl, [am] amide, other brackets name non-standard units. Square brackets hold non-standard residues; d marks the D form. Phe(4-NH2) = Nc1ccc(C[C@H](N)C(=O)O)cc1; 1Nal = N[C@@H](Cc1cccc2ccccc12)C(=O)O; Cha = N[C@@H](CC1CCCCC1)C(=O)O; Tle = CC(C)(C)[C@H](N)C(=O)O; NMeV = CN[C@H](C(=O)O)C(C)C
